Laboratory results from doi:10.1101/2021.08.02.454725.
Results are given in words; binding and its absence hold for the method and conditions named. Some results given as binding are weak or reduced against the parent protein; the word gives no strength.

Amino acid sequences for entries named in this document (tags omitted).
UniProt P61829: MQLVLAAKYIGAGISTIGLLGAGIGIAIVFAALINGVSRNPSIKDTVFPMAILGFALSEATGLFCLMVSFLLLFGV

Target: Atp9 (yeast (endogenous in isolated mitochondria)) (UniProt P61829)
Assay: SDS-PAGE and autoradiography of an SDS-resistant oligomer

binding: binds
Substance: Atp9 (from UniProt P61829 1-76)
